Results are given in words; binding and its absence hold for the method and conditions named. In cells and extracts the contact can be indirect. A yes stands for co-enrichment or nearness to the bait. Other partners may have been found. Sequences can lack the tags named with a protein.
Molecular target: T1, Flag-USP53 (ubiquitin-specific peptidase 53) (UniProt Q70EK8)
T1 sequence: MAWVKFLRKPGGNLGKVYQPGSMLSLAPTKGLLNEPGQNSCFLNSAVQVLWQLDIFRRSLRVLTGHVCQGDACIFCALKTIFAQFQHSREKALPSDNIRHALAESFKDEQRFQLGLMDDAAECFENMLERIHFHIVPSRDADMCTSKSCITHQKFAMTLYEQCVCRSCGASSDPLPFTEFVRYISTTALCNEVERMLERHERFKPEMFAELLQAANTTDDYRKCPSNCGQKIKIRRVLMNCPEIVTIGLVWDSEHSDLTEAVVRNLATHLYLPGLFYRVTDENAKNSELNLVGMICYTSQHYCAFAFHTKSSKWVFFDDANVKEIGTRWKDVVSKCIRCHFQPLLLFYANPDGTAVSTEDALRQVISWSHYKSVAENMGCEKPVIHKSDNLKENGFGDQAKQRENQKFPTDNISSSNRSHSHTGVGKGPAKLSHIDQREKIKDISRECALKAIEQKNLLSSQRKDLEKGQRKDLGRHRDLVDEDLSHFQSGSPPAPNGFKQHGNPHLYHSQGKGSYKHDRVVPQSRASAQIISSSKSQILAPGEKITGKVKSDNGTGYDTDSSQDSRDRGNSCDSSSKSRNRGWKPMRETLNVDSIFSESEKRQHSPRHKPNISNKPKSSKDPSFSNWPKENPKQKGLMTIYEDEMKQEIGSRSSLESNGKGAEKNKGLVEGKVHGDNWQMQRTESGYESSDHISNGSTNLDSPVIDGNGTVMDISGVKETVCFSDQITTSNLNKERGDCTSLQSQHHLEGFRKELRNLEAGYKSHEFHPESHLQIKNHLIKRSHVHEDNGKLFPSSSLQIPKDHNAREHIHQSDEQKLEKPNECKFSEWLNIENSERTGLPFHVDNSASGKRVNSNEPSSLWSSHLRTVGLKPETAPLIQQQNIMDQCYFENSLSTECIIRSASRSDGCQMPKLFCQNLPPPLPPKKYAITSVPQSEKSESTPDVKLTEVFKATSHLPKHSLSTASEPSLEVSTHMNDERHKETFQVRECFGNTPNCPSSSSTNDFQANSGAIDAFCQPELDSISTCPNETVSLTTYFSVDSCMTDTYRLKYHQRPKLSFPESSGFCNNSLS
Experiment: affinity purification with mass spectrometry; HEK-293T transfected with Flag-USP53, lysed in IP buffer (20 mM Tris-HCl pH 7.4, 150 mM NaCl, 1 mM EDTA, 1% NP-40); anti-flag antibody or IgG with Protein A/G magnetic beads, more than 3 h at 4 °C; gel, silver staining, MS

Amino acid sequences for entries named in this document (tags omitted).
UniProt P99999: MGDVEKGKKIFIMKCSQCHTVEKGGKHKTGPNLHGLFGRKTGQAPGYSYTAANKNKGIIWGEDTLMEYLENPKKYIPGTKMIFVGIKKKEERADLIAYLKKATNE

binding: binds
Substance: cytochrome c (CYCS), endogenous (from UniProt P99999 1-105)

From article PMC9163188
